Consider 104 sequences from PubChem BioAssay AID1347423 (Functional Genomics Laboratory (NCATS/FGL), 2020).

About 210 (0.4%) of roughly 52,000 sequences were called active.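 The calls were made as follows: active = gene whose silencing raises cell survival under the drug, median off-target-corrected z-score across its silencing RNAs 2 or more; inactive = the rest.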 Some of the results follow.

A short description of this assay: Resistance to Poly (ADP-Ribose) Polymerase inhibitor: Gene Identification via Genome-wide siRNA Screen. The settings on record: mouse BRCA2 R2336H ES cells, olaparib, CellTiter-Glo viability; hits give high values. Put shortly:
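Mouse BRCA2 R2336H ES cells were reverse-transfected with siRNA (20 nM final), treated at 48 h with 500 nM olaparib, and read by CellTiter-Glo after 72 h. Scores: MAD-based z per siRNA, median per gene, seed off-target correction.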
Take GGUGAUUCACAUACUUUAUTT against Vps54: the z-score is inactive: -1.18.

Turning to GGGACAAUGGCAAAAUAAATT against Serpinb11, the z-score was inactive: 0.644.

As for GCCUGAUGGGCACUUUGAATT against Socs6, the z-score was inactive: -0.588.

In the case of “CCUUCGUAAUGACUGAGGATT against 4930543L23Rik”, the z-score is inactive: -0.4.

For GGGACUUCAACAGAUAUGUTT against Jmjd2b, the z-score is inactive: 1.85.

As for GCGCACAAGCCUUACUAAATT against LOC434377, the z-score was inactive: 1.45.

For the sequence GGACUUGAACAACUUACAATT against Plcb1, the z-score was inactive: -0.00133.

CGGUAUAUCCAAAUUUCUCTT against Art2a: the z-score is inactive: 0.96.

On to GCACCAUCGCUUUGUUAUUTT against Hdlbp, for which the z-score is inactive: -0.562.

As for GGAAGUUUGCUCCAGCCUUTT against Tmem33, the z-score is inactive: -0.951.

For GCCUGACCGACUCAACUACTT against Dbh, the z-score is inactive: -0.0788.

On to GGAUCAGUGCCUUUGGCUATT against Rhoc, for which the z-score was inactive: -0.439.

With GGACAAUGUGGAGAAGGAATT against BC048403, the z-score is inactive: -2.38.

For CCAUAUCUCAUGAGGAAGGTT against Olfr1368, the z-score is inactive: -0.564.

GCAGAGUGUUUAAGUUUAUTT against Cftr: the z-score was inactive: 0.883.

GGGCAGCUGCUAUUUAUUUTT against Fosl1: the z-score is inactive: 0.126.

With GGCCUUGGAACAGAAUCCGTT against Sugt1, the z-score was inactive: 0.673.

Regarding GCGGGAAAUAGCUGACUUATT against Rabep1, the z-score is inactive: -1.09.

In the case of GCUCUCAUCGUCCCUGAAUTT against Cln8, the z-score was inactive: 0.142.

GGCUGCUGUAACGAUGAAGTT against Vegfa: the z-score is inactive: -1.75.

As for GGCUGAGACCUUUUGGUUGTT against AI413631, the z-score is inactive: -0.0343.

With AUCAAGGUUAUGCAUAACUTT against LOC382686, the z-score is inactive: 1.22.

Regarding “CGUUAUCUCAGUGGAUACUTT against 5730444A13Rik”, the z-score is inactive: -2.61.

On to GGAUGAAGAGAAAAAUUGATT against Slc20a1, for which the z-score was active: 2.96.

With “CCGUGCCAAACUUCUUACUTT against 2610528J11Rik”, the z-score is inactive: 1.55.

Turning to GCUAAAAAGCCGAAUUCUATT against a, the z-score is inactive: 0.522.

Turning to GCAUUUCUACUGGAUUGUGTT against Luc7l2, the z-score was inactive: -0.369.

With GGUGCAUUCACGUAUUUACTT against Olfr144, the z-score was inactive: -2.41.

GGAACUCACGCACAUAUUUTT against Net1: the z-score is inactive: 0.027.

Regarding CCCGAACCUGUUGUCUGAATT against Ttc8, the z-score is inactive: -1.68.

As for GGCUCUUAUCAAGAAAUCUTT against Rai12, the z-score is inactive: 1.84.

GGAAAGAAGAAGAGGUGAGTT against Pecr: the z-score was inactive: 0.31.

GGAGUCGUUUUCUGUUACUTT against Gemin5: the z-score is inactive: -1.69.

CGGAAUGCCAAAGAUGUGGTT against Sult1d1: the z-score is inactive: -0.254.

For GGCAUAAACCACUUCCAGCTT against Dedd2, the z-score was inactive: 0.997.

On to CCAAAGUUAUUGCAUGCACTT against Kcna4, for which the z-score was inactive: -1.09.

For the sequence GUAAAGGUCUUGAUAGCCUTT against Tcl1b2, the z-score was inactive: 0.64.

In the case of “AGCUGACUGUAAAAAAACCTT against 1810014F10Rik”, the z-score is inactive: -0.342.

As to “GGACCUAUGCGUUUCUGGUTT against 6330406I15Rik”, the z-score is inactive: 0.577.

For the sequence GGACUCAGCAUCGUGAUACTT against Krtap15, the z-score was inactive: 0.424.

On to “GGCACAAAAUGACUCCUAUTT against C330046G03Rik”, for which the z-score was inactive: -0.514.

Turning to GCGGUUUGUGUUGAUCUUGTT against Olfr768, the z-score was inactive: 1.35.

Consider “GGAACCAGAGGACAAAGACTT against 4921513E08Rik”, for which the z-score is inactive: 0.0214.

For GCACUUACGCAGGCAUUUUTT against Apoc2, the z-score was inactive: 0.0219.

For GGGAUUUUUUGUUGCCAUCTT against Pthr1, the z-score is inactive: -0.139.

In the case of “GGUCUUAUCUUGAUUGAGGTT against E130016I23Rik”, the z-score was inactive: 1.53.

Regarding CCGUACUCUACCUCCACAATT against Flrt2, the z-score is inactive: -1.

With GGCUAUGAGAAAUACACUCTT against Zfp35, the z-score was inactive: 0.444.

GGGUUCAUUUUUGGCUUUCTT against Serpina3m: the z-score is inactive: 0.0224.

GGAAGCUUCUUCAGUACAATT against Rai14: the z-score is inactive: -0.0646.

For GGUCAUCUGUGUUUACACGTT against AI837181, the z-score was inactive: -0.906.

Consider GGUCUUCUUUGUGUUCGCUTT against Olfr283, for which the z-score is inactive: 0.468.

As to GACACUGAACAACGACAUUTT against Prss3, the z-score was inactive: 0.522.

With AGUUAGCCUUGAGGAGAAUTT against Olfr1512, the z-score was inactive: -1.32.

Consider CCAAGUUUUAGCACCUAAATT against Mitc1, for which the z-score was inactive: 1.31.

In the case of “GGGAAAGGACAUUACCCAGTT against 4933409N07Rik”, the z-score was inactive: -1.27.

With “GGUCCUGAAGAUACAUAUUTT against 4732460C16Rik”, the z-score is inactive: -1.51.

With “GGAUUCUUUACAGAAUCAATT against 1110064P04Rik”, the z-score is inactive: 1.85.

With GGAGUAUUUCUACACCAGCTT against Ccl5, the z-score is inactive: 0.44.

On to GGAAAUAGAAACCUCAAGUTT against Sipa1l1, for which the z-score was inactive: -0.937.

CGCAAACAGGAUUGUUCUATT against Lgals3: the z-score is inactive: -1.61.

On to GGACCCAAGCCUAAAACCUTT against Cbx8, for which the z-score was inactive: 0.0315.

On to CCUGCGUAGAAAGAUGAUGTT against Tekt2, for which the z-score was inactive: 0.168.

For the sequence CGGAUCUUGUCAAUAACCATT against Angptl1, the z-score is inactive: -0.131.

As to GCUCCUUAAACAGUAAUCATT against Adipor2, the z-score was inactive: 0.25.

As for GGUUCUGUACGCCACUUGCTT against Lass1, the z-score was inactive: 0.18.

As to “GGCCCAACUGGAACAGUAUTT against C030019I05Rik”, the z-score is inactive: -1.65.

As to CCUCUUCAGAAGCUCUCCUTT against Olfr1320, the z-score was inactive: 1.27.

As for UGUAUUUUGUCAAUGUGGCTT against Olfr104, the z-score is inactive: -1.49.

Regarding GCAUUUGAUACCUUCACUGTT against Krtap16-5, the z-score is inactive: 0.973.

Consider GCAAGAAUCGAUAUGAGAGTT against Lect1, for which the z-score is inactive: -0.886.

Consider GCCGAUAUGAGGAUAGCGATT against Cckar, for which the z-score is inactive: -1.52.

Turning to GGCCUUCACUACGAGGGAATT against Pfkl, the z-score was inactive: 0.0423.

As for CGAAAUCAAGUUUACACUCTT against Mgea6, the z-score was inactive: 1.18.

As for “CGACAAACUCACCUUGUCCTT against 1700094E07Rik”, the z-score was inactive: 0.399.

On to GCAUGAAGGCAAUAUUUCATT against BC021442, for which the z-score is inactive: -0.141.

For the sequence GGAUGAAAUCAAAAUGGAUTT against Zfp622, the z-score was inactive: 1.45.

Turning to GGAUGCAGCUAACAAUUACTT against Tuba8, the z-score was inactive: 0.0077.

In the case of GCCGAUUUUAUCUUUGUCATT against Dpysl5, the z-score was inactive: -0.269.

On to GGAGUAUAAAAAGUUCAGATT against Ell3, for which the z-score was inactive: 0.15.

Take GCCUUUAUCUACCAUUACUTT against Zfp289: the z-score was inactive: -0.401.

As to GCUGCCUUUAAUGUGGCAATT against Tcl1, the z-score was inactive: 0.101.

Consider GGAAGACCUAAACAACGGCTT against Dusp10, for which the z-score is inactive: -0.149.

AAUCCAAGGGCCGGCCUCATT against LOC328779: the z-score is inactive: 0.26.

As to “GCUCUCACAGUUGCAUUCGTT against C330018J07Rik”, the z-score was inactive: -0.366.

On to “GGAGAAAAAGAGAUAAGGUTT against 2900026H06Rik”, for which the z-score was inactive: -0.997.

Turning to GGCUAACAUAUGAAUCACUTT against Sec5l1, the z-score is inactive: -1.62.

CGUUCUCGUUCUGUUUAUUTT against Ctps2: the z-score was inactive: 0.545.

For GGUGUUUGAAUGGAAGGACTT against Idua, the z-score was inactive: -1.37.

GGAUUCUCAUCUGUCAUAATT against Slc26a3: the z-score is inactive: -0.344.

Take CGCUAACUGGAAAGAAACUTT against Dusp19: the z-score is inactive: -1.06.

In the case of “GGAAUUGGAUUCAAGUAUGTT against 1200002M06Rik”, the z-score was inactive: 0.973.

On to CCAAUCUUCUCCUCAAGACTT against Olfr101, for which the z-score is inactive: -0.345.

As for GCUGCUGCUAUAUAUUGAATT against Wsb1, the z-score was inactive: 0.776.

Regarding GCCAUAACCUACAUUGUCATT against Loxhd1, the z-score was inactive: -0.98.

On to GCAUGCAGUAAUUGAAAUCTT against Mdc1, for which the z-score is inactive: -2.1.

For the sequence GCAAGGAGACCGAUAUCAATT against Huwe1, the z-score was inactive: -0.467.

Take GGAAGAAAUGAUAUUCUCATT against Nek11: the z-score is inactive: 0.885.

Take “GCGUGACACUAACAAAAAGTT against 4933429F08Rik”: the z-score is inactive: 1.06.

As to GGUGACCUCACAUUUGACUTT against Dpagt1, the z-score was inactive: 1.11.

In the case of GGUUGCUCGGUUAGACUGUTT against Ipo11, the z-score is inactive: -1.14.

GGUGCAACAAUAUGAGACATT against Prom2: the z-score was inactive: 0.373.

Regarding GGAUAAGGGAAUCACUAUCTT against D10Bur2e, the z-score was inactive: -0.425.

Consider GGGCAGGGACAUUAGUCAUTT against Zfp106, for which the z-score is inactive: -1.62.
